PubChem BioAssay AID686938 – Drosophila RNAi Screening Center | 2013
The screen tested about 23,000 reagents; shown is an unselected part of those with a known target gene and a result. Over the whole deposit, 75 (0.33%) are marked active. 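Raw plate signals without normalisation; calls rest on plate z-scores that were not deposited; ratio present for only 364 wells.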 Unmarked entries are inactive. Reagents against one gene are numbered here. A plus sign joins genes that one reagent is predicted to hit. Not stated in the record: the dose of the treatment.

Aim: 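Knock-downs reducing store-operated calcium influx in Drosophila cells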 (primary screen)
Cells: Drosophila S2R+ cells
Knock-down reagent: long dsRNA against Drosophila genes, about 0.25 µg dsRNA per well, roughly 10,000 cells
Duration: 5 days of knock-down before the calcium assay
Challenge: thapsigargin (SERCA pump blocker) to empty calcium stores; entry signal taken 4 min after adding it
Detection: 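Per-well fluo-4 fluorescence in two replicates, unnormalised, measured in resting cells and 4 min after store depletion by the SERCA blocker thapsigargin; ratio of the two present in few wells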
Scale: calcium entry signal: higher = stronger calcium signal after store depletion; resting calcium signal: higher = higher resting calcium signal
Units: calcium entry signal in fluorescence units; resting calcium signal in fluorescence units
Call rule: 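Called when the plate z-score of the entry-to-rest ratio, mean of duplicates, falls below −3; wells with low overall dye signal (Fmax z below −2) or more than five off-targets excluded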
Calls: active = strongly reduced calcium entry; inactive = no strong reduction

{"target":"CG8320 + ATPCL","reagent":1,"calcium entry signal, replicate 1":3.54e7,"calcium entry signal, replicate 2":5.72e7,"resting calcium signal, replicate 1":1.66e7,"resting calcium signal, replicate 2":2.64e7}
{"target":"CG33506","reagent":1,"calcium entry signal, replicate 1":2.83e7,"calcium entry signal, replicate 2":3.77e7,"resting calcium signal, replicate 1":1.40e7,"resting calcium signal, replicate 2":1.84e7}
{"target":"CG8635","reagent":1,"calcium entry signal, replicate 1":4.21e7,"calcium entry signal, replicate 2":3.66e7,"resting calcium signal, replicate 1":1.84e7,"resting calcium signal, replicate 2":1.83e7}
{"target":"TSG101","reagent":1,"calcium entry signal, replicate 1":3.25e7,"calcium entry signal, replicate 2":4.79e7,"resting calcium signal, replicate 1":2.12e7,"resting calcium signal, replicate 2":2.32e7}
{"target":"GstO2","reagent":1,"calcium entry signal, replicate 1":3.65e7,"calcium entry signal, replicate 2":3.04e7,"resting calcium signal, replicate 1":2.29e7,"resting calcium signal, replicate 2":1.31e7}
{"target":"CR43105","reagent":1,"calcium entry signal, replicate 1":5.11e7,"calcium entry signal, replicate 2":4.27e7,"resting calcium signal, replicate 1":2.20e7,"resting calcium signal, replicate 2":1.81e7}
{"target":"Sgt1","reagent":1,"calcium entry signal, replicate 1":4.15e7,"calcium entry signal, replicate 2":3.56e7,"resting calcium signal, replicate 1":1.99e7,"resting calcium signal, replicate 2":1.78e7}
{"target":"Kdsr","reagent":1,"calcium entry signal, replicate 1":4.53e7,"calcium entry signal, replicate 2":3.11e7,"resting calcium signal, replicate 1":2.20e7,"resting calcium signal, replicate 2":1.61e7}
{"target":"ATPsynF","reagent":1,"calcium entry signal, replicate 1":5.04e7,"resting calcium signal, replicate 1":2.49e7}
{"target":"Nthl1","reagent":1,"calcium entry signal, replicate 1":4.42e7,"calcium entry signal, replicate 2":4.24e7,"resting calcium signal, replicate 1":2.03e7,"resting calcium signal, replicate 2":1.75e7}
{"target":"pyr","reagent":1,"calcium entry signal, replicate 1":3.86e7,"calcium entry signal, replicate 2":4.74e7,"resting calcium signal, replicate 1":2.03e7,"resting calcium signal, replicate 2":2.26e7}
{"target":"pyr","reagent":2,"calcium entry signal, replicate 1":2.02e7,"calcium entry signal, replicate 2":1.83e7,"resting calcium signal, replicate 1":1.09e7,"resting calcium signal, replicate 2":8.53e6}
